Taken from: PubChem BioAssay AID1259405 (NCATS, 2018)
In all, the deposit lists about 50,000 reagents; this is a random part of them. About 4,000 of all reagents (8%) were called active. 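Mouse siRNA library applied to hamster cells; one well for each siRNA.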 The numbers tell different reagents against one gene apart.

Aim: 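Mouse-designed siRNAs used to find CHO productivity engineering targets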 (primary screen)
Cells: Chinese hamster CHO-K1 ovary cells with stable secreted eGFP expression
Reagents: single siRNA against mouse genes, 0.8 pmol siRNA per well (2 µl of 400 nM stock)
Duration: 3 days
Detection: 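Per-well intracellular GFP measured by laser scanning cytometry, plus viability from ATP luminescence, each relative to plate median of non-targeting control wells, in %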
Scale: GFP, % of control: higher = more GFP per well, higher productivity; viability (ATP), % of control: higher = more viable cells (more ATP)
Hit rule: 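Called active when intracellular GFP, relative to negative control, is at or above 120%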

no.	target gene	reagent	GFP, % of control	viability (ATP), % of control	outcome
1	Hddc3 (GeneID 68695)	1	68	66.4	inactive
2	Hddc3 (GeneID 68695)	2	63	78	inactive
3	Hddc3 (GeneID 68695)	3	106	59.4	inactive
4	Epha7 (GeneID 13841)	1	70.1	63.3	inactive
5	Sox2 (GeneID 20674)	1	90.1	87.9	inactive
6	Sox2 (GeneID 20674)	2	112	79	inactive
7	Sox2 (GeneID 20674)	3	85.3	87.7	inactive
8	Mei1 (GeneID 74369)	1	109	60.8	inactive
9	Mei1 (GeneID 74369)	2	91.7	84.4	inactive
10	Mei1 (GeneID 74369)	3	85.7	80.9	inactive
11	Mtus2 (GeneID 77521)	1	29.9	24.4	inactive
12	Mtus2 (GeneID 77521)	2	78.6	86.7	inactive
13	Mtus2 (GeneID 77521)	3	81.4	92.9	inactive
14	Acot11 (GeneID 329910)	1	29.6	37	inactive
15	Acot11 (GeneID 329910)	2	96.5	85.7	inactive
16	Acot11 (GeneID 329910)	3	77.3	62.1	inactive
17	Polr1has (GeneID 76416)	1	44.9	39	inactive
18	Polr1has (GeneID 76416)	2	64.3	82.5	inactive
19	Polr1has (GeneID 76416)	3	50.4	89.5	inactive
20	Pkd1l2 (GeneID 76645)	1	111	85	inactive
21	Pkd1l2 (GeneID 76645)	2	76.9	78.6	inactive
22	Pkd1l2 (GeneID 76645)	3	31.4	53.7	inactive
23	Akr1c14 (GeneID 105387)	1	102	85.6	inactive
24	Akr1c14 (GeneID 105387)	2	66.2	60.8	inactive
25	Akr1c14 (GeneID 105387)	3	69	99.4	inactive
26	Agps (GeneID 228061)	1	200	150	active
27	Agps (GeneID 228061)	2	65.9	124	inactive
28	Agps (GeneID 228061)	3	112	123	inactive
29	Wfdc5 (GeneID 209232)	1	55.1	54.5	inactive
30	Wfdc5 (GeneID 209232)	2	88.5	68.6	inactive
31	Wfdc5 (GeneID 209232)	3	40.6	44.4	inactive
32	Rhot1 (GeneID 59040)	1	83.7	86.9	inactive
33	Rhot1 (GeneID 59040)	2	68.9	72.4	inactive
34	Rhot1 (GeneID 59040)	3	164	62	active
